Reference: patent US11109819B2, “System and method for quantitatively mapping mitochondrial membrane potential” (The General Hospital Corporation, priority 2016, dated 2021)

Tested on: mitochondrial membrane potential of myocardium
Assay: Quantitative PET mapping of mitochondrial membrane potential with 18F-TPP+
Type: in vivo, domestic swine
Conditions: injured pig, assuming ΔΨc=−30 mV, ƒmito=0.15, FIG. 9

[18F]c1ccc([P+](c2ccccc2)(c2ccccc2)c2ccccc2)cc1 [^18F-TPP^+, ^18F-tetraphenylphosphonium]
ΔΨm (core of the tissue injury): 20 mV
ΔΨm (other vascular territories): 145 mV

No dose or concentration is given here for some results.
